PubChem BioAssay AID200 (DTP/NCI, 2004)
The list is a part of this screen's results and no random one: it is rich in T/C values a quarter to a half above the control, in often repeated tests (any T/C) and in doses without a T/C. Other doses and runs of a compound stand elsewhere. T/C gives the treated animals as a percentage of the vehicle group. Some doses have a count of surviving animals in place of a T/C: the source holds a T/C of zero for them, seemingly a mark for toxic or unscored doses. Some doses without a T/C left all or most animals alive at the check, yet need not have been tolerated: the source hardly ever lists a survival T/C far under the control, and the zero likely stands for such cases as well. Counts of survivors are from the toxicity check (mostly the fifth day) where no day follows; animals may have died later. Schedules are NCI's codes, read here as Q, the interval in days (D) or hours (H), X, the number of doses. Some entries were tested several times; their values stand side by side, smallest first. For survival time, the PubChem record calls one and a half times the control and up active, and a quarter to a half above the control has no call in these data; cut-offs in other NCI protocols can differ. Some T/C values carry the count of animals alive at the toxicity check (mostly the fifth day); where none is given, no animal had died by that day. Where a SMILES comes first, the peptide text is derived from it. The star is where a group is joined. Cbz = O=C(OCc1ccccc1)*

System: B6C3F1 mice, B16 melanoma ip, median survival T/C
Test: NCI In Vivo Anticancer Drug Screen. Data for tumor model B16 Melanoma (intraperitoneal) in B6C3F1 mice
Conditions: T/C endpoint: median survival time, higher T/C = longer survival
Summary of the method: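 Tumor-bearing mice received test compound; a separate group got vehicle only. Survival was then compared, with results reported as treated over control.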

[1] = dose: 12.5 mg/kg/injection, schedule: Q01DX009 (ip), vehicle: saline
[2] = dose: 25.0 mg/kg/injection, schedule: Q01DX009 (ip), vehicle: saline
[3] = dose: 50.0 mg/kg/injection, schedule: Q01DX009 (ip), vehicle: saline
[4] = dose: 100.0 mg/kg/injection, schedule: Q01DX009 (ip), vehicle: Klucel (hydroxypropylcellulose) (HPC)
[5] = dose: 200.0 mg/kg/injection, schedule: Q01DX009 (ip), vehicle: Klucel (hydroxypropylcellulose) (HPC)
[6] = dose: 400.0 mg/kg/injection, schedule: Q01DX009 (ip), vehicle: saline
[7] = dose: 25.0 mg/kg/injection, schedule: Q01DX009 (ip), vehicle: saline with Tween-80
[8] = dose: 200.0 mg/kg/injection, schedule: Q01DX009 (ip), vehicle: saline with Tween-80
[9] = dose: 100.0 mg/kg/injection, schedule: Q01DX009 (ip), vehicle: saline with Tween-80

## CC[C@@]1(O)C[C@H](OC2CC(N(C)C)C(OC3CC(O)C(OC4CCC(=O)C(C)O4)C(C)O3)C(C)O2)c2c(cc3c(c2O)C(=O)c2c(O)ccc(O)c2C3=O)[C@H]1C(=O)OC (stereo partly specified)
dose: 2.0 mg/kg/injection, schedule: Q01DX009 (ip), vehicle: water
  survivor count: 10 of 10
dose: 4.0 mg/kg/injection, schedule: Q01DX009 (ip), vehicle: water
  survivor count: 10 of 10
dose: 8.0 mg/kg/injection, schedule: Q01DX009 (ip), vehicle: water
  survivor count: 1 of 10

## CCOC(=O)c1ccc(NC(=O)Nc2nc(C)cs2)cc1
dose: 50.0 mg/kg/injection, schedule: Q01DX009 (ip), vehicle: distilled water + Tween-80
  T/C: 137 % of control
dose: 100.0 mg/kg/injection, schedule: Q01DX009 (ip), vehicle: distilled water + Tween-80
  T/C: 139 % of control
dose: 200.0 mg/kg/injection, schedule: Q01DX009 (ip), vehicle: distilled water + Tween-80
  survivor count: 4 of 8

## CC[n+]1ccc2c(C)c3[nH]c4ccc(O)cc4c3c(C)c2c1
dose: 0.78 mg/kg/injection, schedule: Q01DX009 (ip), vehicle: saline
  T/C: 129 % of control
dose: 1.56 mg/kg/injection, schedule: Q01DX009 (ip), vehicle: saline
  T/C: 140 % of control
[1]
  survivor count: 5 of 8
[2]
  survivor count: 1 of 8
[3]
  survivor count: 2 of 8

## Nc1ncnc2c1ncn2C1C=C(CO)C(O)C1O (stereo unspecified)
dose: 8.0 mg/kg/injection, schedule: Q01DX009 (ip), vehicle: saline
  survivor count: 6 of 10 and 9 of 10
dose: 16.0 mg/kg/injection, schedule: Q01DX009 (ip), vehicle: saline
  survivor count: 0 of 10 and 3 of 10

## COc1cc2cc(c1Cl)N(C)C(=O)/C=C/C1(C)OC1C(C)C1CC(O)(NC(=O)O1)C(OC)/C=C/C=C(\C)C2OC (stereo unspecified)
dose: 32.0 micrograms/kg/injection, schedule: Q01DX009 (ip), vehicle: distilled water + alcohol
  T/C: 135 % of control

## COc1cccc2c1C(=O)c1c(O)c3c(c(O)c1C2=O)CC(O)(/C(C)=N/NC(=O)CCCCC(=O)N/N=C(\C)C1(O)Cc2c(O)c4c(c(O)c2C(OC2CC(N)C(O)C(C)O2)C1)C(=O)c1c(OC)cccc1C4=O)CC3OC1CC(N)C(O)C(C)O1 (stereo unspecified)
dose: 12.5 mg/kg/injection, schedule: Q01DX009 (ip), vehicle: water
  survivor count: 10 of 10
dose: 25.0 mg/kg/injection, schedule: Q01DX009 (ip), vehicle: water
  survivor count: 10 of 10

## NC(CCl)=NCC12CC3CC(CC(C3)C1)C2
dose: 24.0 mg/kg/injection, schedule: Q01DX009 (ip), vehicle: Klucel (hydroxypropylcellulose) (HPC)
  T/C: 125 and 142 % of control
dose: 48.0 mg/kg/injection, schedule: Q01DX009 (ip), vehicle: Klucel (hydroxypropylcellulose) (HPC)
  survivor count: 7 of 10

## CC(=O)OC1=NC(C)c2c1cc(OC(C)=O)[nH]c2=O (stereo unspecified)
[4]
  survivor count: 2 of 10
[5]
  survivor count: 0 of 10 and 1 of 10

## CC(NC(=O)OCc1ccccc1)C(=O)NC(CC(N)=O)C(=O)O (stereo not drawn) (Cbz-Ala-Asn-OH; configuration not given here)
[5]
  T/C: 127 % of control

## O=C1N(CC2CO2)CCN1CC1CO1 (stereo unspecified)
[3]
  T/C: 145 % of control
dose: 200.0 mg/kg/injection, schedule: Q01DX009 (ip), vehicle: saline
  survivor count: 10 of 10
dose: 200.0 mg/kg/injection, schedule: Q01DX009 (ip), vehicle: suspension in saline
  survivor count: 10 of 10
[6]
  T/C: 133 % of control

## C[C@H](CCC[C@H](C)OS(=O)(=O)c1ccccc1)OS(=O)(=O)c1ccccc1
[7]
  T/C: 129 % of control
dose: 50.0 mg/kg/injection, schedule: Q01DX009 (ip), vehicle: saline with Tween-80, evaluated on day 45
  T/C: 97 % of control
dose: 50.0 mg/kg/injection, schedule: Q01DX009 (ip), vehicle: saline with Tween-80, evaluated on day 60
  T/C: 97, 123 [9 of 10 alive], 138 % of control
dose: 100.0 mg/kg/injection, schedule: Q01DX009 (ip), vehicle: saline with Tween-80, evaluated on day 45
  T/C: 118 % of control
dose: 100.0 mg/kg/injection, schedule: Q01DX009 (ip), vehicle: saline with Tween-80, evaluated on day 60
  T/C: 100 [9 of 10 alive], 150, 158 % of control
[8]
  T/C: 133 and 184 % of control
  survivor count: 9 of 10 and 10 of 10
dose: 400.0 mg/kg/injection, schedule: Q01DX009 (ip), vehicle: saline with Tween-80
  survivor count: 4 of 10 and 9 of 10

## C=C(C(=O)O)C(N)C(=O)O (stereo unspecified)
[6]
  survivor count: 8 of 10

## C/C(=N\NC(N)=O)c1cccc(/C(C)=N/NC(N)=O)n1
[9]
  survivor count: 10 of 10
[8]
  survivor count: 10 of 10

## CN1N=C(N)c2cn(C3OC(COP(=O)(O)O)C(O)C3O)c3ncnc1c23 (stereo unspecified)
[5]
  survivor count: 1 of 8

## CSc1cc(=O)n2c3ccccc3c3ccnc1c32
dose: 20.0 mg/kg/injection, schedule: Q01DX009 (ip), vehicle: saline with Tween-80
  survivor count: 9 of 10

## CC(=O)C1=C(O)C2(O)C(=O)c3c(c(C)c4ccc(C)c(O)c4c3O)CC2C(N)C1=O (stereo unspecified)
dose: 7.5 mg/kg/injection, schedule: Q01DX009 (ip), vehicle: saline + alcohol
  T/C: 125 % of control
dose: 15.0 mg/kg/injection, schedule: Q01DX009 (ip), vehicle: saline + alcohol, evaluated on day 45
  T/C: 139 % of control
dose: 15.0 mg/kg/injection, schedule: Q01DX009 (ip), vehicle: saline + alcohol, evaluated on day 60
  T/C: 120, 121, 134 % of control
dose: 30.0 mg/kg/injection, schedule: Q01DX009 (ip), vehicle: saline + alcohol, evaluated on day 45
  T/C: 143 % of control
dose: 30.0 mg/kg/injection, schedule: Q01DX009 (ip), vehicle: saline + alcohol, evaluated on day 60
  T/C: 116, 146, 178 % of control
dose: 30.0 mg/kg/injection, schedule: Q01DX009 (ip), vehicle: saline
  T/C: 129 % of control
dose: 60.0 mg/kg/injection, schedule: Q01DX009 (ip), vehicle: saline + alcohol, evaluated on day 45
  T/C: 160 % of control
dose: 60.0 mg/kg/injection, schedule: Q01DX009 (ip), vehicle: saline + alcohol, evaluated on day 60
  T/C: 121, 130 [8 of 10 alive], 134 % of control
dose: 60.0 mg/kg/injection, schedule: Q01DX009 (ip), vehicle: saline
  T/C: 128 % of control
dose: 120.0 mg/kg/injection, schedule: Q01DX009 (ip), vehicle: saline + alcohol
  survivor count: 5 of 10
dose: 120.0 mg/kg/injection, schedule: Q01DX009 (ip), vehicle: saline
  survivor count: 7 of 10
dose: 240.0 mg/kg/injection, schedule: Q01DX009 (ip), vehicle: saline
  survivor count: 0 of 10

## ClCC[Se](Cl)(Cl)c1ccccc1
dose: 3.12 mg/kg/injection, schedule: Q01DX009 (ip), vehicle: saline
  T/C: 130 % of control
dose: 6.25 mg/kg/injection, schedule: Q01DX009 (ip), vehicle: saline
  survivor count: 9 of 9
dose: 12.0 mg/kg/injection, schedule: Q01DX009 (ip), vehicle: saline
  survivor count: 2 of 10
[1]
  survivor count: 6 of 9
[2]
  survivor count: 1 of 9

## O/N=C/c1ccccc1O.O/N=C/c1ccccc1O.[Cu]
dose: 6.25 mg/kg/injection, schedule: Q01DX009 (ip), vehicle: saline with Tween-80
  survivor count: 10 of 10
[7]
  survivor count: 10 of 10
dose: 50.0 mg/kg/injection, schedule: Q01DX009 (ip), vehicle: saline with Tween-80
  survivor count: 1 of 10

## O=NN(CCF)C(=O)N[C@H]1CCCC[C@H]1O
dose: 15.0 mg/kg/injection, schedule: Q01DX001 (ip), vehicle: saline
  T/C: 147 % of control
dose: 120.0 mg/kg/injection, schedule: Q01DX001 (ip), vehicle: saline
  survivor count: 5 of 10 on day 6

## Cc1nn(CCO)c(C)c1N=[N+]([O-])c1c(C)nn(CCO)c1C
[9]
  survivor count: 9 of 10

## Cc1ccc2c(ccc(CC(=S)[S-])[n+]2C)c1
dose: 50.0 mg/kg/injection, schedule: Q01DX009 (ip), vehicle: Klucel (hydroxypropylcellulose) (HPC)
  survivor count: 10 of 10
[4]
  survivor count: 10 of 10
[5]
  survivor count: 3 of 10 and 10 of 10

## N[C@@H](C[C@H]1CCC(=O)[C@@H]2O[C@H]12)C(=O)O
dose: 100.0 mg/kg/injection, schedule: Q01DX009 (ip), vehicle: saline + alcohol
  T/C: 134 % of control
dose: 200.0 mg/kg/injection, schedule: Q01DX009 (ip), vehicle: saline + alcohol
  T/C: 125 % of control
